Measured values published in US20110245242A1, “Heterocyclically Substituted Anilinopyrimides” (Bayer CropScience AG, priority 2008, published 2011).
Some entries share one result that the patent states for a list of compounds.

Experiments:
Sphaerotheca fuliginea = assay: Sphaerotheca test (cucumber)/protective; type: in vivo; settings: active compound concentration of 500 ppm, protective, evaluation 7 days after the inoculation
Alternaria solani = assay: Alternaria test (tomato)/protective; type: in vivo; settings: active compound concentration of 500 ppm, protective, evaluation 7 days after the inoculation

O=C1OCCN1c1ccc(Nc2ncc(Cl)c(NC3COC3)n2)cc1 [Example 17]
efficacy (Sphaerotheca fuliginea): ≥ 70%

O=C1CCCN1c1cccc(Nc2ncc(F)c(NC3CCC3)n2)c1 [Example 43]
efficacy (Sphaerotheca fuliginea): ≥ 70%

CC(C)CC1COC(=O)N1c1cccc(Nc2ncc(Cl)c(NC3CCC3)n2)c1 (stereo not shown) [Example 49]
efficacy (Sphaerotheca fuliginea): ≥ 70%

CC1(C)CN(c2cccc(Nc3ncc(Cl)c(NC4CC4)n3)c2)C1=O [Example 53]
efficacy (Sphaerotheca fuliginea): ≥ 70%

CC(C)N(C)c1nc(Nc2cccc(N3CCCC3=O)c2)ncc1Cl [Example 77]
efficacy (Sphaerotheca fuliginea): ≥ 70%

CN(c1nc(Nc2cccc(N3C(=O)CCC3CO)c2)ncc1Cl)C1CC1 (stereo not shown) [Example 82]
efficacy (Alternaria solani): ≥ 70%
efficacy (Sphaerotheca fuliginea): ≥ 70%

CN(c1cccc(N2CCCC2=O)c1)c1ncc(Cl)c(NC2CCC2)n1 [Example 83]
efficacy (Sphaerotheca fuliginea): ≥ 70%

O=C1CCC(CO)N1c1cccc(Nc2ncc(Cl)c(NC3CC3)n2)c1 (stereo not shown) [Example 86]
efficacy (Sphaerotheca fuliginea): ≥ 70%

CC(C)[C@@H]1COC(=O)N1c1cccc(Nc2ncc(Cl)c(NC3CCC3)n2)c1 [Example 101]
efficacy (Sphaerotheca fuliginea): ≥ 70%

Cc1ccc(Nc2ncc(Cl)c(NC3CCC3)n2)cc1N1CCOC1=O [Example 105]
efficacy (Sphaerotheca fuliginea): ≥ 70%

CCOC1CCC(=O)N1c1cccc(Nc2ncc(Cl)c(NC3CC3)n2)c1 (stereo not shown) [Example 106, 1-(3-{[5-Chloro-4-(cyclopropylamino)pyrimidin-2-yl]amino}phenyl)-5-ethoxypyrrolidin-2-one]
efficacy (Alternaria solani): ≥ 70%

C[C@@H]1COC(=O)N1c1cccc(Nc2ncc(Br)c(NC3CCC3)n2)c1 [Example 107]
efficacy (Alternaria solani): ≥ 70%
efficacy (Sphaerotheca fuliginea): ≥ 70%

CC(C)[C@H]1COC(=O)N1c1cccc(Nc2ncc(Cl)c(NCC(F)(F)F)n2)c1 [Example 111]
efficacy (Alternaria solani): ≥ 70%
efficacy (Sphaerotheca fuliginea): ≥ 70%

CC1COC(=O)N1c1cccc(Nc2ncc(Cl)c(NCC3CC3)n2)c1 (stereo not shown) [Example 116]
efficacy (Sphaerotheca fuliginea): ≥ 70%

COCC(C)Nc1nc(Nc2cccc(N3C(=O)OC[C@@H]3C(C)C)c2)ncc1Cl (stereo partly shown) [Example 117]
efficacy (Sphaerotheca fuliginea): ≥ 70%

CC1COC(=O)N1c1cccc(Nc2ncc(Cl)c(NC3CC3(C)C)n2)c1 (stereo not shown) [Example 120]
efficacy (Alternaria solani): ≥ 70%
efficacy (Sphaerotheca fuliginea): ≥ 70%

CC1(C)CC1Nc1nc(Nc2cccc(N3CCCC3=O)c2)ncc1Cl (stereo not shown) [Example 127]
efficacy (Alternaria solani): ≥ 70%

CC(C)C1COC(=O)N1c1cccc(Nc2ncc(Br)c(NCC3CC3)n2)c1 (stereo not shown) [Example 128]
efficacy (Alternaria solani): ≥ 70%
efficacy (Sphaerotheca fuliginea): ≥ 70%

CC(C)Nc1nc(Nc2cccc(N3CCCCC3=O)c2)ncc1Br [Example 134]
efficacy (Alternaria solani): ≥ 70%
efficacy (Sphaerotheca fuliginea): ≥ 70%

O=C1CCCCN1c1cccc(Nc2ncc(Br)c(NCC(F)F)n2)c1 [Example 135]
efficacy (Alternaria solani): ≥ 70%

CC(C)Nc1nc(Nc2cccc(N3CCOCC3=O)c2)ncc1Cl [Example 143]
efficacy (Alternaria solani): ≥ 70%

CC(C)Nc1nc(Nc2ccc(N3C(=O)OCC3C)cc2)ncc1Br (stereo not shown) [Example 150]
efficacy (Alternaria solani): ≥ 70%

CC(C)Nc1nc(Nc2cccc(N3CCOCC3=O)c2)ncc1Br [Example 151]
efficacy (Sphaerotheca fuliginea): ≥ 70%

O=C1OCCN1c1cccc(Nc2ncc(Cl)c(NCC(F)F)n2)c1 [Example 154]
efficacy (Alternaria solani): ≥ 70%

O=C1COCCN1c1cccc(Nc2ncc(Cl)c(NCC(F)F)n2)c1 [Example 159]
efficacy (Alternaria solani): ≥ 70%

CC1CCC(=O)N1c1cccc(Nc2ncc(Cl)c(NCC(F)F)n2)c1 (stereo not shown) [Example 160]
efficacy (Alternaria solani): ≥ 70%

CC1CC(=O)N(c2cccc(Nc3ncc(Cl)c(NCC(F)F)n3)c2)C1=O (stereo not shown) [Example 161]
efficacy (Alternaria solani): ≥ 70%
efficacy (Sphaerotheca fuliginea): ≥ 70%

CC1COC(=O)N1c1cccc(Nc2ncc(Br)c(NCC(F)F)n2)c1 (stereo not shown) [Example 163]
efficacy (Alternaria solani): ≥ 70%

CC1CCC(=O)N1c1cccc(Nc2ncc(Br)c(NCC(F)F)n2)c1 (stereo not shown) [Example 167]
efficacy (Alternaria solani): ≥ 70%
efficacy (Sphaerotheca fuliginea): ≥ 70%

CC1CC(=O)N(c2cccc(Nc3ncc(Br)c(NCC(F)F)n3)c2)C1=O (stereo not shown) [Example 168]
efficacy (Alternaria solani): ≥ 70%

CC1CC(C)N(c2cccc(Nc3ncc(Cl)c(NCC(F)(F)F)n3)c2)C1=O (stereo not shown) [Example 171]
efficacy (Alternaria solani): ≥ 70%

O=C1COCCN1c1cccc(Nc2ncc(Cl)c(NCC(F)(F)F)n2)c1 [Example 173]
efficacy (Alternaria solani): ≥ 70%

CC1CCC(=O)N1c1cccc(Nc2ncc(Cl)c(NCC(F)(F)F)n2)c1 (stereo not shown) [Example 174]
efficacy (Alternaria solani): ≥ 70%
efficacy (Sphaerotheca fuliginea): ≥ 70%

COCC(C)Nc1nc(Nc2cccc(N3C(=O)OC[C@H]3C)c2)ncc1Br (stereo partly shown) [Example 183]
efficacy (Sphaerotheca fuliginea): ≥ 70%

CC(=O)N(c1cccc(N2CCCC2=O)c1)c1ncc(Cl)c(NCC2CC2)n1 [Example 184]
efficacy (Alternaria solani): ≥ 70%

CC(C)Nc1nc(Nc2cccc(N3CCC(C)C3=O)c2)ncc1Cl (stereo not shown) [Example 185]
efficacy (Alternaria solani): ≥ 70%
efficacy (Sphaerotheca fuliginea): ≥ 70%

CNc1nc(Nc2ccc(F)c(N3CCCC3=O)c2)ncc1Cl [Example 199]
efficacy (Sphaerotheca fuliginea): ≥ 70%

O=C1CCCN1c1cc(Nc2ncc(C(F)(F)F)c(NCC3CC3)n2)ccc1F [Example 201]
efficacy (Sphaerotheca fuliginea): ≥ 70%

CC1CC1Nc1nc(Nc2cccc(N3CCOC3=O)c2)ncc1Cl (stereo not shown) [Example 205]
efficacy (Alternaria solani): ≥ 70%

CCN(C)c1nc(Nc2cccc(N3CCCC3=O)c2)ncc1Cl [Example 207]
efficacy (Sphaerotheca fuliginea): ≥ 70%

CCC1CC(C)C(=O)N1c1cccc(Nc2ncc(Cl)c(NCC3CC3)n2)c1 (stereo not shown) [Example 212]
efficacy (Alternaria solani): ≥ 70%

CC1CC1Nc1nc(Nc2cccc(N3CCCCC3=O)c2)ncc1Cl (stereo not shown) [Example 213]
efficacy (Alternaria solani): ≥ 70%

CCC1=C(C)CN(c2cccc(Nc3ncc(Br)c(NC4CC4)n3)c2)C1=O [Example 232]
efficacy (Alternaria solani): ≥ 70%
efficacy (Sphaerotheca fuliginea): ≥ 70%

O=C1CCC(=O)N1Cc1cccc(Nc2ncc(Cl)c(NC3CC3)n2)c1 [Example 235]
efficacy (Alternaria solani): ≥ 70%

COC1=CC(=O)N(c2cccc(Nc3ncc(Br)c(NC4CC4)n3)c2)C1 [Example 238]
efficacy (Alternaria solani): ≥ 70%

CCC1CC1Nc1nc(Nc2cccc(N3CCCC3=O)c2)ncc1Cl (stereo not shown) [Example 242]
efficacy (Sphaerotheca fuliginea): ≥ 70%

CC(C)C1COC(=O)N1c1cccc(Nc2ncc(Br)c(NC3CCC3)n2)c1 (stereo not shown) [Example 248]
efficacy (Sphaerotheca fuliginea): ≥ 70%

CC(C)C1COC(=O)N1c1cccc(Nc2ncc(C(F)(F)F)c(NC3CC3)n2)c1 (stereo not shown) [Example 249]
efficacy (Sphaerotheca fuliginea): ≥ 70%

CC(C)C1COC(=O)N1c1cccc(Nc2ncc(Br)c(NC3CC3)n2)c1 (stereo not shown) [Example 250]
efficacy (Alternaria solani): ≥ 70%
efficacy (Sphaerotheca fuliginea): ≥ 70%

CCC1CCC(=O)N1c1cccc(Nc2ncc(C(F)(F)F)c(NC3CC3)n2)c1 (stereo not shown) [Example 255]
efficacy (Sphaerotheca fuliginea): ≥ 70%

O=C1CCC(C(F)(F)F)N1c1cccc(Nc2ncc(Br)c(NC3CCC3)n2)c1 (stereo not shown) [Example 258]
efficacy (Alternaria solani): ≥ 70%

CC1CC(Nc2nc(Nc3cccc(N4CCN(C)C4=O)c3)ncc2Br)C1 (stereo not shown) [Example 290]
efficacy (Sphaerotheca fuliginea): ≥ 70%

Cc1ccc(Nc2ncc(Cl)c(NC3CC3)n2)cc1N1CCCC1=O [Example 305]
efficacy (Sphaerotheca fuliginea): ≥ 70%

O=C1CCCN1c1cccc(Nc2ncc(C(F)(F)F)c(NCC(F)(F)F)n2)c1 [Example 306]
efficacy (Sphaerotheca fuliginea): ≥ 70%

COc1cc(Nc2ncc(Cl)c(NC3CC3)n2)cc(N2CCCC2=O)c1 [Example 318]
efficacy (Alternaria solani): ≥ 70%

CN(c1nc(Nc2cccc(N3CCCC3=O)c2)ncc1C(F)(F)F)C1CCCC1 [Example 319]
efficacy (Sphaerotheca fuliginea): ≥ 70%

COc1cc(Nc2ncc(C(F)(F)F)c(NC3CC3)n2)cc(N2CCCC2=O)c1 [Example 326]
efficacy (Sphaerotheca fuliginea): ≥ 70%

COc1ccc(Nc2ncc(Cl)c(NC3CC3)n2)cc1N1CCCC1=O [Example 328]
efficacy (Sphaerotheca fuliginea): ≥ 70%
